Measurements reported in PubChem BioAssay AID743454 (Peter MacCallum Cancer Centre, 2014).

Test: 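Genes whose loss kills vorinostat-resistant colon cancer cells under vorinostat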 (primary screen)
Cells: human HCT116-VR colon cancer cells, selected for vorinostat resistance
Knock-down reagent: siRNA pool against human genes, 40 nM siRNA pool
Duration: vorinostat for 24 h, read-out about 72 h after transfection
Treatment: vorinostat at 2.5 µM final
Measurement: 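Two measures, CellTiter-Fluor viability and luminescent caspase 3/7 activity, each as fold change against same-plate mock wells, mean of duplicates, then screen-wide robust z-score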
Reading the numbers: viability robust z-score: higher = more viable cells than screen typical; caspase robust z-score: higher = more caspase 3/7 activity than screen typical
Active means: 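a knock-down is a hit when classed RV1 or RV2 for lowered viability, or CA1 or CA2 for caspase activation; those lethal without drug were dropped; hits were retested singly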
Here is one part, drawn at random, of about 18,000 reagents tested. 450 of them (2.5%) count as active. 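Single biological run; no consistent viability z cut-off exists, so the class columns, not z-scores, define the calls.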 A number with no mark means an inactive call.

Target gene,viability hit class,caspase hit class,viability robust z-score,caspase robust z-score
ANO8 (GeneID 57719),no change,no change,-1.07,-0.7
WNT2 (GeneID 7472),no change,no change,0.59,0.26
IRF2BPL (GeneID 64207),no change,no change,0.24,1.75
POLR3E (GeneID 55718),no change,no change,-1.62,-0.54
ITGA7 (GeneID 3679),no change,no change,-0.48,-0.56
TMTC3 (GeneID 160418),no change,no change,0.9,-0.14
ZNF641 (GeneID 121274),no change,no change,0.78,2.32
POLM (GeneID 27434),no change,no change,0.28,1.55
ZFPL1 (GeneID 7542),no change,no change,-0.14,-0.17
FGF19 (GeneID 9965),no change,no change,0.45,-0.34
XKRYP7 (GeneID 353515),no change,no change,-1.39,4.13
SUOX (GeneID 6821),no change,no change,-1.65,0.96
MARCHF2 (GeneID 51257),no change,no change,-0.5,2.04
GLCE (GeneID 26035),no change,no change,0.02,1.34
TYW1 (GeneID 55253),no change,no change,0.44,1.83
KDM3B (GeneID 51780),no change,no change,0.22,-0.05
ZNF324 (GeneID 25799),no change,no change,-1.76,3.05
HOXC11 (GeneID 3227),no change,no change,0.82,1.35
RIF1 (GeneID 55183),no change,no change,0.4,-0.22
ZNF106 (GeneID 64397),no change,no change,1.33,-0.22
RASGRF2 (GeneID 5924),no change,no change,-0.45,-0.02
MRO (GeneID 83876),no change,no change,-0.14,0.22
SAXO2 (GeneID 283726),no change,no change,-0.18,-0.55
DHODH (GeneID 1723),no change,no change,0.54,-0.82
CCL19 (GeneID 6363),no change,no change,0.24,0.36
RASSF9 (GeneID 9182),no change,no change,0.15,-0.7

Laid out differently: results already given.
{"Target gene": "ANO8 (GeneID 57719)", "viability hit class": "no change", "caspase hit class": "no change", "viability robust z-score": -1.07, "caspase robust z-score": -0.7}
{"Target gene": "WNT2 (GeneID 7472)", "viability hit class": "no change", "caspase hit class": "no change", "viability robust z-score": 0.59, "caspase robust z-score": 0.26}
{"Target gene": "IRF2BPL (GeneID 64207)", "viability hit class": "no change", "caspase hit class": "no change", "viability robust z-score": 0.24, "caspase robust z-score": 1.75}
{"Target gene": "POLR3E (GeneID 55718)", "viability hit class": "no change", "caspase hit class": "no change", "viability robust z-score": -1.62, "caspase robust z-score": -0.54}
{"Target gene": "ITGA7 (GeneID 3679)", "viability hit class": "no change", "caspase hit class": "no change", "viability robust z-score": -0.48, "caspase robust z-score": -0.56}
{"Target gene": "TMTC3 (GeneID 160418)", "viability hit class": "no change", "caspase hit class": "no change", "viability robust z-score": 0.9, "caspase robust z-score": -0.14}

The results go on:
Target gene,viability hit class,caspase hit class,viability robust z-score,caspase robust z-score
ZNF654 (GeneID 55279),no change,no change,0.32,0.94
PLEK (GeneID 5341),no change,no change,0.06,-1.06
MUC21 (GeneID 394263),no change,no change,0.85,-0.2
GALNT12 (GeneID 79695),no change (active),CA2 (caspase activation),-0.83,6.34
CSRP2 (GeneID 1466),no change,no change,-2.85,0.21
C1orf122 (GeneID 127687),no change,no change,1.01,-0.7
CFC1B (GeneID 653275),no change,no change,0.48,-0.68
GSTA4 (GeneID 2941),no change,no change,-0.86,0.28
SOX11 (GeneID 6664),no change,no change,0.38,-0.74
VMA22 (GeneID 84317),no change,no change,-0.12,1.28
TLL2 (GeneID 7093),no change,no change,-0.57,1.58
POLRMT (GeneID 5442),no change,no change,1.04,-0.01
XK (GeneID 7504),no change,no change,1.19,-0.2
